According to US20090233851A1, “Insulin Resistance Improver” (priority 2005, published 2009):
At least one peptide structure holds a part that was inferred or is arguable (an end, a ring closure or a residue).

How the values were obtained:
[1] = test system: KK-Ay/Ta Jcl mice; experiment: GLP-1(7-36) amide repeatedly administered to KK-Ay/Ta Jcl insulin resistance mouse model over two weeks (blood glucose, glucose uptake by tissues); type: in vivo; details: vs control group
[2] = test system: KK-Ay/Ta Jcl mice; experiment: GLP-1(7-36) amide subcutaneously administered 3 times daily to KK-Ay/Ta Jcl mice over 8 weeks; type: in vivo, mouse
[3] = test system: KK/Ta Jcl mice; experiment: GLP-1(7-36) amide subcutaneously administered 3 times daily to KK/Ta Jcl mice on normal or high fat diet; type: in vivo, mouse
[4] = test system: hearts collected from the high fat diet groups; experiment: Cardiac function by Langendorff's perfusion technique on hearts excised after 22- to 24-week administration; type: in vivo, KK/Ta Jcl mice; details: vs medium group
[5] = test system: CRj:CD1(ICR) mice; experiment: GLP-1(7-36) amide subcutaneously administered to CRj:CD1(ICR) mice kept on high fat diet for about 5 weeks; type: in vivo, mouse
[6] = 15, 50, 150 μg/kg s.c. 3 times daily, 8 weeks
[7] = during the test period, among the groups
[8] = high fat diet, 150 μg/kg s.c. 3 times daily, 15 weeks
[9] = normal diet, 150 μg/kg s.c. 3 times daily, 15 weeks, vs medium group
[10] = high fat diet, after about 5 weeks and one night fasting

Q: What does the source list for CC[C@H](C)[C@H](NC(=O)[C@H](Cc1ccccc1)NC(=O)[C@H](CCC(=O)O)NC(=O)[C@H](CCCCN)NC(=O)[C@H](C)NC(=O)[C@H](C)NC(=O)[C@H](CCC(N)=O)NC(=O)CNC(=O)[C@H](CCC(=O)O)NC(=O)[C@H](CC(C)C)NC(=O)[C@H](Cc1ccc(O)cc1)NC(=O)[C@H](CO)NC(=O)[C@H](CO)NC(=O)[C@@H](NC(=O)[C@H](CC(=O)O)NC(=O)[C@H](CO)NC(=O)[C@@H](NC(=O)[C@H](Cc1ccccc1)NC(=O)[C@@H](NC(=O)CNC(=O)[C@H](CCC(=O)O)NC(=O)[C@H](C)NC(=O)[C@@H](N)Cc1c[nH]cn1)[C@@H](C)O)[C@@H](C)O)C(C)C)C(=O)N[C@@H](C)C(=O)N[C@@H](Cc1c[nH]c2ccccc12)C(=O)N[C@@H](CC(C)C)C(=O)N[C@H](C(=O)N[C@@H](CCCCN)C(=O)NCC(=O)N[C@@H](CCCNC(=N)N)C(N)=O)C(C)C [GLP-1(7-36) amide]?
A: serum glucose levels ([1]; 14 days once daily, 30 minutes after oral glucose/3H-deoxyglucose load): greater decrease; postprandial blood glucose levels ([1]; GLP-1(7-36) amide 500 μg/kg s.c. or troglitazone 30 mg/kg i.p. once daily, Day 7 and Day 13): greater decrease; blood glucose levels measured before administration at 17 o'clock [2, 6]: No significant difference; increase in HbAlc levels (at 9 o'clock) [2, 6]: slightly suppressed; increase in the blood glucose levels (at 9 o'clock) ([2]; 15, 50, 150 μg/kg s.c. 3 times daily, 8 weeks, before administration): slightly suppressed; increase in the insulin levels (at 9 o'clock) ([2]; doses of 15 to 150 μg/kg s.c. 3 times daily, 8 weeks): suppressed; body weight [2, 7]: no significant difference; food intake [2, 7]: no significant difference; dose at which the insulin sensitivity effect is saturated ([2]; s.c. 3 times daily): 0.015 mg/kg; blood glucose level after the 2-week discontinuation period ([3]; administration discontinued for 2 weeks): nor did it increase rapidly; blood glucose level upon switching diet (high fat to normal and back) ([3]; after the 15-week administration period): did not vary; increase in the plasma insulin levels (at 9 o'clock) [3, 8]: significantly suppressed; increase in the random blood glucose levels (at 9 o'clock) [3, 8]: significantly suppressed; fat deposition in the liver ([3]; high fat diet, after 22- to 24-week administration): little fat deposition; increase in the liver weight ([3]; high fat diet, after 22- to 24-week administration, fasted one night): significantly suppressed; acetoacetic acid levels ([3]; high fat diet, before administration at 9 o'clock on Day 85): suppressed the increase; increase in the body weight ([3]; normal diet and high fat diet groups, 150 μg/kg s.c. 3 times daily, 15 weeks): suppressed; food intake ([3]; normal diet and high fat diet groups, vs medium group): no significant difference; HbAlc value [3, 9]: no significant difference; blood glucose levels (at 9 and 17 o'clock) [3, 9]: no significant difference; liver weight ([3]; normal diet, after 22- to 24-week administration, fasted one night): did not change; postischemic recovery of cardiac output [4]: faster; weight of food intake (average for each group) ([5]; among the groups): No significant difference; random blood glucose levels ([5]; before administration at 9 o'clock, during repeated administration, among the groups): No significant difference; body weight ([5]; high fat diet, 150 μg/kg s.c. twice daily, about 5 weeks): suppressed the increase; increase in the plasma glucose levels 30 minutes after administration of 1.5 g/kg glucose [5, 10]: did not suppress; plasma insulin level 30 minutes after administration of 1.5 g/kg glucose [5, 10]: no significant difference; fasting blood glucose levels ([5]; high fat diet, one night fasting following the final administration): decreased
